Measured values: patent US9029080B2, “Screening assay for insecticides” (priority 2008, dated 2015)

Biological target: T1, octopamine receptor (OctR, CG6919 dmOa2) (Drosophila melanogaster, UniProt Q9VCZ3)
T1 construct: expressed in transfected cells; host or cells: CHO stably expressing G-alpha-16
Experiment: OctR clone 55 FLIPR Fluo-4 calcium assay
Format: cell-based
Description: FIG. 62. Cells were plated at 10K/well in 384 well plates and allowed to incubate overnight at […]. The cells were assayed 18-24 hours after seeding. Media was removed and cells were dye loaded for 60 minutes with 2 μM Fluo-4. After 1 hour, dye was removed and 20 μl of buffer added to the plate and placed into FLIPR. The 1st addition was antagonist dose response curves and the 2nd addition was agonist dose response curves. Antagonists were challenged with 100 nM Octopamine. In addition, these compounds were tested in the parental cell line CHO-Galpha16.
Cells were plated at 10,000 cells/well in 50 μl into 384-well black TC plates and allowed to incubate overnight at 37° C./5% CO2. The cells were assayed 18-24 hours after seeding. Culture medium was removed by flicking and cells were dye loaded for 60 minutes with 20 μl of 2 μM Fluo-4 in assay buffer plus probenecid at 25° C. After one hour dye was removed by flicking and 20 μL of assay buffer was added, wait 5 min prior to placing into the FLIPR and run using a two-addition protocol. The first addition (20 ul, 2×) was 0.5% DMSO final in assay buffer. The second addition (20 ul, 3×) was either assay buffer or 100 nM octopamine final.

## CN1CCN2c3ccccc3Cc3ccccc3C2C1 (stereo not shown) [mianserin]
  IC50: 267 nM
